# According to PubChem BioAssay AID540256 (National Center for Advancing Translational Sciences (NCATS), 2011):
# “And” between values parts separate entries of the source, which are not always exact repeats. Equal values may be shown once. The whole screen tested about 300,000 compounds, of which about 3,700 (1.2%) were called active. The shares of active, inactive and inconclusive entries below differ from those in the screen. The call rests on the fitted dose curve; tested in HEK293 cells. Potencies beside an inconclusive call are fits to weak or partial responses and may not hold up.
# Assay: qHTS for Inhibitors of binding or entry into cells for Lassa Virus; further: nearly all actives have a fitted effect of over 50% in size
# Settings: Lassa virus pseudotype entry inhibition, cell reporter; series mostly up to 37.9 µM
# Potency means the concentration at half of the fitted maximal effect.
row,Compound,Potency
1,CN(C)c1ccc(/C=N/c2cc(-c3ccccc3)nn2-c2ccccc2)cc1,inactive
2,O=C(COc1ccc([N+](=O)[O-])cc1)Nc1cccc2nsnc12,"inconclusive: 3.16 µM [activator, partial curve]"
3,Cc1ccc(CCNC(=O)CCn2nc(-c3ccc(C)cc3)ccc2=O)cc1,"inconclusive: 17.8 µM [inhibitor, single point]"
4,COc1cccc2cc(-c3nc4ccccc4[nH]3)c(=O)oc12,"inconclusive: 5.62 µM [inhibitor, full curve]"
5,CN(C)S(=O)(=O)c1cccc(NC(=O)Cc2ccc(Cl)cc2)c1,active: 12.6 µM
6,CC(C)(C)c1ccc(COC(=O)CN2C(=O)NC3(CCCC3)C2=O)cc1,"inconclusive: 35.5 µM [inhibitor, single point]"
7,COc1ccc(-c2nc(SCC(=O)NCCc3ccccc3)n[nH]2)cc1,"inconclusive: 35.5 µM [inhibitor, single point]"
8,COc1ccc(-c2noc(CSc3nnc(C)n3-c3ccc(C)c(C)c3)n2)c(OC)c1,"inconclusive: 2.82 µM [inhibitor, partial curve, poor fit]"
9,COCc1cc(C)nc(OCC(=O)N/N=C/c2ccccc2O)c1C#N,"inconclusive: 35.5 µM [inhibitor, single point]"
10,O=S(=O)(Nc1ccc2c(c1)OCCO2)c1cccc2nsnc12,inactive
11,CC1=CC(=C2N=C(c3ccccc3)OC2=O)C=C(C)O1,"inconclusive: 18.3 µM [activator, single point]"
12,COC(=O)CNC(c1ccccc1)c1cc(Br)ccc1NS(=O)(=O)c1ccc(C)cc1 (stereo unspecified),"inconclusive: 17.8 µM [inhibitor, partial curve]"
13,CC1CNCCN1S(=O)(=O)c1cccc2cnccc12 (stereo unspecified),"inactive and inconclusive: 7.3 µM [inhibitor, partial curve, poor fit]"
14,O=C(c1ccccc1)[C@@H]1[C@@H](C(=O)c2ccc(F)cc2)[C@@]2(C(=O)Nc3ccccc32)[C@H]2c3ccccc3C=CN12,inactive
15,O=C1C(=O)c2c(ccc3ccccc23)-c2ccccc21,"inconclusive: 35.5 µM [inhibitor, single point]"
16,O=[N+]([O-])c1cc2c(c(CSc3nnnn3-c3ccc(O)cc3)c1)OCOC2,"inconclusive: 31.6 µM [inhibitor, single point]"
17,O=C(N/N=C/c1cc(Br)ccc1O)c1ccncc1,"inconclusive: 14.1 µM [inhibitor, partial curve, poor fit]"
18,COc1c(C)cc(C(=O)C2CCCN(C(=O)c3ccoc3)C2)cc1C (stereo unspecified),inactive
19,CC(C)(CO)NCC(=O)Nc1cc(C(F)(F)F)cc(NC(=O)CNC(C)(C)CO)c1Cl,"inconclusive: 1.84 µM [inhibitor, partial curve, poor fit]"
20,COc1ccc(CNCC(O)(c2ccc(Cl)cc2)c2ccc(Cl)cc2)cc1,"inconclusive: 16.4 µM [inhibitor, partial curve]"
21,CCCC1=Nc2cc(C(=O)NCCOC)ccc2Sc2ccccc21,"inconclusive: 3.55 µM [inhibitor, partial curve, poor fit]"
22,CCn1cc(C(=O)O)c(=O)c2cnc(N3CCN(C(=S)NC(=O)c4ccc(OC)cc4)CC3)nc21,"inconclusive: 0.206 µM [inhibitor, full curve, poor fit]"

# Some of these compounds in order of length of the SMILES, low to high.
row,Compound,Potency
10,O=S(=O)(Nc1ccc2c(c1)OCCO2)c1cccc2nsnc12,inactive
9,COCc1cc(C)nc(OCC(=O)N/N=C/c2ccccc2O)c1C#N,"inconclusive: 35.5 µM [inhibitor, single point]"
7,COc1ccc(-c2nc(SCC(=O)NCCc3ccccc3)n[nH]2)cc1,"inconclusive: 35.5 µM [inhibitor, single point]"

# (further entries)

row,Compound,Potency
1,CC(C)C[C@H](NC(=O)OC(C)(C)C)C(=O)N/N=C/C1=Cc2ccccc2OC1C (stereo partly specified),"inconclusive: 18.3 µM [inhibitor, single point]"
2,CN1C(=O)C(O)(C2COC(C)(C)CC2=O)c2cc(Br)ccc21 (stereo unspecified),"inconclusive: 11.2 µM [inhibitor, single point]"
3,O=C(NC1CCCC1)C(c1c[nH]c2ccccc12)N(C(=O)Cn1nnc(-c2ccc(Cl)cc2)n1)c1ccccc1 (stereo unspecified),"inconclusive: 6.51 µM [inhibitor, partial curve, poor fit]"
4,Cc1ccccc1C(=O)N1CCN(c2ccc(N3CCOCC3)nn2)CC1,"inconclusive: 0.0891 µM [inhibitor, full curve, poor fit]"
5,COc1ccccc1CCNS(=O)(=O)CCNC(=O)c1ccccc1,inactive
6,O=c1c2ccccc2nnn1CSc1ccccc1F,"inconclusive: 7.08 µM [inhibitor, partial curve, poor fit]"
7,O=C(CN1C(=O)CCc2cc(S(=O)(=O)N3CCCCC3)ccc21)NCc1ccc(Cl)cc1,"inconclusive: 5.62 µM [inhibitor, single point]"
8,CCCn1c(N)c(N(CCOC)C(=O)COC(=O)CSc2cc(C)c3ccccc3n2)c(=O)[nH]c1=O,"inconclusive: 2.24 µM [inhibitor, partial curve, poor fit]"
9,COC(=O)c1c(NC(=O)c2ccc(S(=O)(=O)N(C)C3CCCCC3)cc2)sc2c1CCN(C)C2,"inconclusive: 35.5 µM [activator, partial curve, poor fit]"
10,CN(C)c1ccc(/C=C/C=C2/SC(=S)N(c3ccccc3)C2=O)cc1,inactive
11,COC(=O)c1ccccc1NC(=O)C1CCCN(c2nnc(C)c3c(C)n(-c4ccccc4)nc23)C1 (stereo unspecified),inactive
12,COc1cc(C(C(=O)NC2CCCCC2)N(C(=O)Cc2c[nH]c3ccccc23)c2ccccc2C)cc(OC)c1OC (stereo unspecified),inactive
13,COc1ccc(-c2ccc(=O)n(CC(=O)Nc3cccc(O)c3)n2)cc1OC,inactive
14,COCCC(=O)N1CCC(Oc2ccc(C(=O)NC3CCOC(C)(C)C3)cc2)CC1 (stereo unspecified),inactive
15,CCOc1cccc(CNc2ccc(O)cc2)c1OCc1ccc(Cl)cc1,"inconclusive: 31.6 µM [inhibitor, single point]"
16,N/C(=N\OC(=O)C12CC3CC(CC(C3)C1)C2)c1ccccn1,"inconclusive: 1.58 µM [activator, partial curve]"
17,COc1ccc(-c2nc(Cn3c(SCc4ccccc4F)nc4cccnc43)c(C)o2)cc1,"inconclusive: 35.5 µM [inhibitor, single point]"
18,O=C(Nc1cc2ccccc2oc1=O)C1CCCCC1,"inconclusive: 0.73 µM [activator, partial curve, poor fit]"
19,CC(=O)Oc1ccccc1/C=C1\CCOC1=O,inactive
20,O=C(Nc1nc(-c2ccc(-c3ccccc3)cc2)cs1)C1CCCO1 (stereo unspecified),inactive
21,COc1ccc(NC(=O)Nc2nnc(-c3ccccc3F)s2)cc1,inactive
22,Cc1ccc(C(c2nnnn2Cc2cccs2)N2CCN(C(=O)c3ccco3)CC2)cc1 (stereo unspecified),"inconclusive: 0.651 µM [inhibitor, partial curve, poor fit]"

# Shown bar-delimited: part of the list above
row | Compound | Potency
5 | COc1ccccc1CCNS(=O)(=O)CCNC(=O)c1ccccc1 | inactive
6 | O=c1c2ccccc2nnn1CSc1ccccc1F | inconclusive: 7.08 µM [inhibitor, partial curve, poor fit]

# Additional structures.

row,Compound,Potency
1,N/C(=N\OC(=O)c1cc(Br)ccc1Cl)c1cccnc1,inactive
2,Cc1ccc(Nc2nc3ccccc3o2)cc1F,inactive
3,O=C(/C(=C/O)N=Nc1ccccc1)c1ccc(Cl)cc1,"inconclusive: 22.4 µM [inhibitor, partial curve, poor fit]"
4,c1ccc(C2OCCN2c2ccccc2)cc1 (stereo unspecified),"inconclusive: 5.62 µM [inhibitor, single point]"
5,CCOc1ccc(NS(=O)(=O)c2cc3c4c(c2)CCN4C(=O)CC3)cc1,"inconclusive: 15.8 µM [inhibitor, single point]"
6,N#Cc1ccc(C(=O)CSc2nnc(-c3ccc(C(F)(F)F)cn3)s2)cc1,"inconclusive: 6.31 µM [inhibitor, single point]"
7,O=C(/C=C/c1ccc2c(c1)OCO2)Nc1cc(S(=O)(=O)N2CCOCC2)ccc1N1CCOCC1,"inconclusive: 0.562 µM [inhibitor, single point]"
8,CCc1ccc(C(=O)NNc2ccc(C)c(Cl)c2)cc1,"inconclusive: 11.2 µM [inhibitor, partial curve, poor fit]"
9,Cc1ccc(CNC(=O)c2ccccc2NC(=O)c2nsc3ccccc23)cc1,"inconclusive: 10 µM [activator, partial curve, poor fit]"
10,CC(=O)N1CCC(N2CCN(c3ccccc3F)CC2)CC1,"inconclusive: 29.1 µM [activator, single point]"
11,COc1ccc(NS(=O)(=O)c2cc(NC(=O)CCc3ccccc3)ccc2N2CCOCC2)cc1,inactive
12,O=C(NCCc1c[nH]c2ccccc12)[C@@H]1C[C@H]1[C@@H](NP(=O)(c1ccccc1)c1ccccc1)c1ccccc1,"inconclusive: 5.17 µM [inhibitor, full curve, poor fit]"
13,Cc1ccc(NC(=O)c2ccc([N+](=O)[O-])cc2Cl)nc1,"inconclusive: 2.31 µM [activator, partial curve]"
14,Cc1ccc(S(=O)(=O)N(C)CC(=O)O/N=C(\N)c2cccc(Br)c2)cc1,inactive
15,COCCn1c(/C=C/c2ccccc2)nc2ccccc21,"inconclusive: 10 µM [inhibitor, partial curve, poor fit]"
16,C=CCNC(=O)c1ccc2nc(-c3ccccc3)c(-c3ccccc3)nc2c1,"inconclusive: 29.1 µM [inhibitor, single point]"
17,CCC(C)C(NC(=O)C1CCC(C)CC1)C(=O)Nc1ccc(OC)cc1 (stereo unspecified),"inconclusive: 35.5 µM [inhibitor, single point]"
18,Cc1ccc(N2C(=O)c3ccccc3C2O)nc1 (stereo unspecified),active: 3.66 µM
19,COc1cc(C)c(Cl)cc1S(=O)(=O)N1CCSC1,inactive
20,CCOC(=O)C1(S(=O)(=O)c2ccc(Cl)cc2)CCN(Cc2ccc(Cl)cc2)CC1,"inconclusive: 29.1 µM [inhibitor, single point]"
21,CCOc1ccc(-n2ccn(CC(=O)NCCc3ccccc3)c(=O)c2=O)cc1,inactive
22,CC(C)c1ccccc1NC(=O)Cn1c(-c2ccccc2Cl)nc2ccccc21,inactive
